Source: PMC4671723

By UniProt entry, the sequences of proteins in these tests, tags left out.
UniProt O22467: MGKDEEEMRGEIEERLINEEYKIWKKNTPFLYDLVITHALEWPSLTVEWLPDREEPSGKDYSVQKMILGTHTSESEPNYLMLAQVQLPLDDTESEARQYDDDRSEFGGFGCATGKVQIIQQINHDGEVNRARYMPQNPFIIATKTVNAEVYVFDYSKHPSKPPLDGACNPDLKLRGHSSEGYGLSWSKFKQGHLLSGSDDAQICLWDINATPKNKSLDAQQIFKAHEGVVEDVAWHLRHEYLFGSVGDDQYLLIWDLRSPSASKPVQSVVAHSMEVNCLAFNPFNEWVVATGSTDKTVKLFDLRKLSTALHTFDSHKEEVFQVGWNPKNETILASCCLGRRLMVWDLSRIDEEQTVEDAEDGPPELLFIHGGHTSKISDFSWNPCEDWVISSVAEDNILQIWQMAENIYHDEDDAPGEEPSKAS

Molecular target: T1, GFP-CLF (CURLY LEAF fused to GFP) (Arabidopsis) (UniProt P93831)
T1 sequence: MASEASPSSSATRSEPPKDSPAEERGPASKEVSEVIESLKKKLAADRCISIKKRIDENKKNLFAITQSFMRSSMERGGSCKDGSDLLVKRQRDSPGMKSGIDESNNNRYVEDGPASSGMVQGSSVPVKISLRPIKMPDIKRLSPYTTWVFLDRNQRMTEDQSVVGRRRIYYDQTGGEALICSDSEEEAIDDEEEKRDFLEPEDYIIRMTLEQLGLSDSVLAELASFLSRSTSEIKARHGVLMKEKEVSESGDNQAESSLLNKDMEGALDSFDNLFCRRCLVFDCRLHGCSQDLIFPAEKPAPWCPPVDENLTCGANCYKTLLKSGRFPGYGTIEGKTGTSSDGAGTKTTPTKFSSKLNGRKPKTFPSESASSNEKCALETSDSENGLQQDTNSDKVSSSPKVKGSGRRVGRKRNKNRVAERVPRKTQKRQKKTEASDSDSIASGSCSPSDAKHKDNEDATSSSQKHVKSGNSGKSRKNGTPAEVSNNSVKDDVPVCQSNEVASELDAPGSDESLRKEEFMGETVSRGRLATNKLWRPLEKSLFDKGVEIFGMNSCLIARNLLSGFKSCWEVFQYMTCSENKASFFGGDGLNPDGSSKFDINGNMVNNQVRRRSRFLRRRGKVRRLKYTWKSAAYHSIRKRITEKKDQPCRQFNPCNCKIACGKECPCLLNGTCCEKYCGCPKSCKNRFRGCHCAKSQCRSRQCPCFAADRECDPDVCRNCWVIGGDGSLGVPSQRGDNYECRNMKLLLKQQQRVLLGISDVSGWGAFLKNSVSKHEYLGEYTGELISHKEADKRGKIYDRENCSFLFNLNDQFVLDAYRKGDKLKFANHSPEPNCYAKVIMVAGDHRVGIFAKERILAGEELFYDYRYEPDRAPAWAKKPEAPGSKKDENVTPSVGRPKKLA
Experiment: affinity purification with mass spectrometry; GFP-tagged bait immunoprecipitated from extracts of transgenic Arabidopsis plants (pALP1::ALP1-GFP, 35S::ALP1-GFP, 35S::GFP-CLF, 35S::GFP control); co-purifying proteins identified by mass spectrometry (IP-MS); three independent replicates

- binding: binds
Substance: MSI1 (from UniProt O22467 1-424)

These are yes or no findings as the source states them, for the method shown. Binding seen in cells or lysates may run through a third protein. These calls come from enrichment with a bait or labelling near it, and not all partners need be listed. Tags and fused reporters may be left off the sequences shown.
